Article PMC10570040

Key:
Assay in all cases: EMSA
[1] = molecular target: EnfR wild-type (TON_1525) (Thermococcus onnurineus NA1) (UniProt B6YTS4); conditions: EMSA: 10 mM Tris pH 7.4, 200 mM KCl, 2 mM DTT, 0.2 mM EDTA, 37 C 20 min, recombinant protein, residues 1-146, protein details: C-terminal His6, non-cleavable
[2] = molecular target: EnfR R35A (Thermococcus onnurineus NA1) (UniProt B6YTS4); conditions: drastically decreased; EMSA: 10 mM Tris pH 7.4, 200 mM KCl, 2 mM DTT, 0.2 mM EDTA, 37 C 20 min; recombinant protein; residues 1-146; protein details: C-terminal His6, non-cleavable; label: 5'-Cy5
[3] = molecular target: EnfR R43A (Thermococcus onnurineus NA1) (UniProt B6YTS4); conditions: drastically decreased; EMSA: 10 mM Tris pH 7.4, 200 mM KCl, 2 mM DTT, 0.2 mM EDTA, 37 C 20 min; recombinant protein; residues 1-146; protein details: C-terminal His6, non-cleavable; label: 5'-Cy5
[4] = molecular target: EnfR T55I (Thermococcus onnurineus NA1) (UniProt B6YTS4); conditions: 0-250 nM protein, 5 nM DNA; EMSA: 10 mM Tris pH 7.4, 200 mM KCl, 2 mM DTT, 0.2 mM EDTA, 37 C 20 min; recombinant protein; residues 1-146; protein details: C-terminal His6, non-cleavable; label: 5'-Cy5
[5] = molecular target: EnfR ΔN1-6 del1-6 (Thermococcus onnurineus NA1) (UniProt B6YTS4); conditions: defect in DNA binding; EMSA: 10 mM Tris pH 7.4, 200 mM KCl, 2 mM DTT, 0.2 mM EDTA, 37 C 20 min; recombinant protein; residues 7-146; protein details: C-terminal His6, non-cleavable; label: 5'-Cy5
[6] = 10 nM protein, band lost with cold 36-bp, label: 5'-Cy5 on forward primer, probe letters rebuilt from the primers and the genome

ACGTATCTCATATTACCACCCCCCCAATGGACATAAACTTACGCGTGCTCATGTTTGTTCCCTCAGTCTCGGCTTGGTAGATAGATAAAAAAGCGTTTTTAAACCCGGAAATTGTAAACCAAAGGTTAAAACTCTTTTGTTTAGTTAGAATTTTAGAGATAACAAAAATGTTAGACGTAATGATGTCCCTTTTAGCGGTTCCGAGAACAATATAAACCATTATAACCCATTCCAAGCCACTATAGTCGTATAAAGTTCCTAATCAACTAATGAAGCAGTGTTGAACCTTTAGTTTGGAAAAGGCCGTTAAAAAAACGTTTTTAAGCAAATTCATTTAACACCTGAATGAACATCTTGGGACATTTAATGTAGGGTGGTGGGTATGGCACAGAA (double strand) [P0537]
binding result [1, 6]: binds

AGACTTATTCCTATTTTGTCCTAACTTCCCTCGCCCTAAGGGACAATACCTGATGAACGGCCAAACATGTCTATTAAGGGCATTCTTAATTCAATGTTCTACGTTCATAAATGACCTTAAGTGATTTTGTTTACCCCAGTATTTGGCAGTATACAAACAGACTTAAAAAAAGCCTTCTGAGGGCTTTATTTCGCTGTTTCTCAATGGACATAACCTTTTGTTAAAAACCAAGCTATTTAAAAAGTGTTTTAAGCCAAATAGAGAACTATTATTGAAAATCAAATAGCGTACAGTACACCATATAGAGTACATTGGCGACCAAAAATGTCCCCCAATGTGGAGGTGTGGAGAATGAGTGAA (double strand) [P1563]
binding result [1, 6]: binds

CCATCTTAAAATCGTTTTGTTTCCATTATACGAGGT (double strand) [T14G-A23C]
binding result ([1]; 0-200 nM protein, 5 nM DNA, remarkable reduction, label: Cy5): binds more weakly

CCATCTTAAAATCTTTTTGTTTACATTATACGAGGT (double strand) [36-bp target, Cy5]
binding result [2]: binds more weakly
binding result [3]: binds more weakly
binding result [4]: binds more weakly
binding result [5]: binds more weakly

The comparison behind a weaker result is the experiment's own reference, which may not be listed here.
